Our source for the binding values is article PMC7041778.

The chains behind the UniProt entries cited, without tags or fusion partners.
UniProt P38936: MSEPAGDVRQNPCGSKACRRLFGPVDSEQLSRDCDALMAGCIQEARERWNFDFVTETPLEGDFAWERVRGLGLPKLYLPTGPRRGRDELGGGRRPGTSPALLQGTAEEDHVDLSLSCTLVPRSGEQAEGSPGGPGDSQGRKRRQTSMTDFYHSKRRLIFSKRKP
UniProt Q9NTK5: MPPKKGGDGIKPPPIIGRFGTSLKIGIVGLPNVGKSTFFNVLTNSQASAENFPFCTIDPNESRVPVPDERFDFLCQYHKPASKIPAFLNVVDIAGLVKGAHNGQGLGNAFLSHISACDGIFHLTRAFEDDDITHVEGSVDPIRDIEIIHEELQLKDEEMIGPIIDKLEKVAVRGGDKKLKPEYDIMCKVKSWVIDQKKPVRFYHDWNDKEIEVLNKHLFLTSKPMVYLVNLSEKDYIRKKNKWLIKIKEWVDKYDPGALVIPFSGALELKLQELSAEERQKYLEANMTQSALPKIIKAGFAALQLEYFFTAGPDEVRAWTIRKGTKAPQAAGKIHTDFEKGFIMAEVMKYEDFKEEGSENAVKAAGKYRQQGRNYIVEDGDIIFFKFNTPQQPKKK

No constants are given. Whether binding was seen depends on the method and setting. In cells and extracts the contact can be indirect. Some results given as binding are weak or reduced against the parent protein; the word gives no strength.

The target of assay [1] is HA-P21 (in HEK293T cells) (UniProt P38936). Nature of the assay: co-IP; HEK293T cells transfected with Flag-OLA1 or HA-P21 (or both) for 48 h; extracts incubated with antibodies (or IgG control) and protein A/G beads 12 h at 4°C; western blot. For orientation: In western blotting, separated proteins are transferred to a membrane and probed.
Assay [2] addresses P21, endogenous (UniProt P38936). Kind of assay: co-IP; endogenous OLA1 and P21; cells not given; western blot.
Assay [3] addresses HA-P21 (in HCC cells) (UniProt P38936). Kind of assay: co-IP; HCC cells transfected with Flag-CDK2 and HA-P21 with or without siRNA-OLA1 or GST-OLA1 for 48 h; extracts incubated with antibodies and protein A/G beads 12 h at 4°C; western blot.

With Flag-OLA1 (from UniProt Q9NTK5 1-396), the binding result in assay [1] was “binds”. In the case of “Obg-like ATPase 1 (OLA1), endogenous (from UniProt Q9NTK5 1-396)”, the binding result in assay [2] and in assay [3] was “binds” each time.

In the case of GST-OLA1 (from UniProt Q9NTK5 1-396), the binding entry in assay [3] is listed as “binds”.
